Results published in publication PMC7933334, “The methyltransferase SETD2 couples transcription and splicing by engaging mRNA processing factors through its SHI domain” (Nature Communications, 2021).
These are yes or no findings as the source states them, for the method shown. In cells and extracts the contact can be indirect. A result given as binding can be weak or reduced; the word gives no strength.

Protein sequences, listed by entry. Tags and fused reporters are not part of them. Lines headed by an entry give the natural chain unless they say otherwise; changes in a name come on top.
UniProt Q9BYW2: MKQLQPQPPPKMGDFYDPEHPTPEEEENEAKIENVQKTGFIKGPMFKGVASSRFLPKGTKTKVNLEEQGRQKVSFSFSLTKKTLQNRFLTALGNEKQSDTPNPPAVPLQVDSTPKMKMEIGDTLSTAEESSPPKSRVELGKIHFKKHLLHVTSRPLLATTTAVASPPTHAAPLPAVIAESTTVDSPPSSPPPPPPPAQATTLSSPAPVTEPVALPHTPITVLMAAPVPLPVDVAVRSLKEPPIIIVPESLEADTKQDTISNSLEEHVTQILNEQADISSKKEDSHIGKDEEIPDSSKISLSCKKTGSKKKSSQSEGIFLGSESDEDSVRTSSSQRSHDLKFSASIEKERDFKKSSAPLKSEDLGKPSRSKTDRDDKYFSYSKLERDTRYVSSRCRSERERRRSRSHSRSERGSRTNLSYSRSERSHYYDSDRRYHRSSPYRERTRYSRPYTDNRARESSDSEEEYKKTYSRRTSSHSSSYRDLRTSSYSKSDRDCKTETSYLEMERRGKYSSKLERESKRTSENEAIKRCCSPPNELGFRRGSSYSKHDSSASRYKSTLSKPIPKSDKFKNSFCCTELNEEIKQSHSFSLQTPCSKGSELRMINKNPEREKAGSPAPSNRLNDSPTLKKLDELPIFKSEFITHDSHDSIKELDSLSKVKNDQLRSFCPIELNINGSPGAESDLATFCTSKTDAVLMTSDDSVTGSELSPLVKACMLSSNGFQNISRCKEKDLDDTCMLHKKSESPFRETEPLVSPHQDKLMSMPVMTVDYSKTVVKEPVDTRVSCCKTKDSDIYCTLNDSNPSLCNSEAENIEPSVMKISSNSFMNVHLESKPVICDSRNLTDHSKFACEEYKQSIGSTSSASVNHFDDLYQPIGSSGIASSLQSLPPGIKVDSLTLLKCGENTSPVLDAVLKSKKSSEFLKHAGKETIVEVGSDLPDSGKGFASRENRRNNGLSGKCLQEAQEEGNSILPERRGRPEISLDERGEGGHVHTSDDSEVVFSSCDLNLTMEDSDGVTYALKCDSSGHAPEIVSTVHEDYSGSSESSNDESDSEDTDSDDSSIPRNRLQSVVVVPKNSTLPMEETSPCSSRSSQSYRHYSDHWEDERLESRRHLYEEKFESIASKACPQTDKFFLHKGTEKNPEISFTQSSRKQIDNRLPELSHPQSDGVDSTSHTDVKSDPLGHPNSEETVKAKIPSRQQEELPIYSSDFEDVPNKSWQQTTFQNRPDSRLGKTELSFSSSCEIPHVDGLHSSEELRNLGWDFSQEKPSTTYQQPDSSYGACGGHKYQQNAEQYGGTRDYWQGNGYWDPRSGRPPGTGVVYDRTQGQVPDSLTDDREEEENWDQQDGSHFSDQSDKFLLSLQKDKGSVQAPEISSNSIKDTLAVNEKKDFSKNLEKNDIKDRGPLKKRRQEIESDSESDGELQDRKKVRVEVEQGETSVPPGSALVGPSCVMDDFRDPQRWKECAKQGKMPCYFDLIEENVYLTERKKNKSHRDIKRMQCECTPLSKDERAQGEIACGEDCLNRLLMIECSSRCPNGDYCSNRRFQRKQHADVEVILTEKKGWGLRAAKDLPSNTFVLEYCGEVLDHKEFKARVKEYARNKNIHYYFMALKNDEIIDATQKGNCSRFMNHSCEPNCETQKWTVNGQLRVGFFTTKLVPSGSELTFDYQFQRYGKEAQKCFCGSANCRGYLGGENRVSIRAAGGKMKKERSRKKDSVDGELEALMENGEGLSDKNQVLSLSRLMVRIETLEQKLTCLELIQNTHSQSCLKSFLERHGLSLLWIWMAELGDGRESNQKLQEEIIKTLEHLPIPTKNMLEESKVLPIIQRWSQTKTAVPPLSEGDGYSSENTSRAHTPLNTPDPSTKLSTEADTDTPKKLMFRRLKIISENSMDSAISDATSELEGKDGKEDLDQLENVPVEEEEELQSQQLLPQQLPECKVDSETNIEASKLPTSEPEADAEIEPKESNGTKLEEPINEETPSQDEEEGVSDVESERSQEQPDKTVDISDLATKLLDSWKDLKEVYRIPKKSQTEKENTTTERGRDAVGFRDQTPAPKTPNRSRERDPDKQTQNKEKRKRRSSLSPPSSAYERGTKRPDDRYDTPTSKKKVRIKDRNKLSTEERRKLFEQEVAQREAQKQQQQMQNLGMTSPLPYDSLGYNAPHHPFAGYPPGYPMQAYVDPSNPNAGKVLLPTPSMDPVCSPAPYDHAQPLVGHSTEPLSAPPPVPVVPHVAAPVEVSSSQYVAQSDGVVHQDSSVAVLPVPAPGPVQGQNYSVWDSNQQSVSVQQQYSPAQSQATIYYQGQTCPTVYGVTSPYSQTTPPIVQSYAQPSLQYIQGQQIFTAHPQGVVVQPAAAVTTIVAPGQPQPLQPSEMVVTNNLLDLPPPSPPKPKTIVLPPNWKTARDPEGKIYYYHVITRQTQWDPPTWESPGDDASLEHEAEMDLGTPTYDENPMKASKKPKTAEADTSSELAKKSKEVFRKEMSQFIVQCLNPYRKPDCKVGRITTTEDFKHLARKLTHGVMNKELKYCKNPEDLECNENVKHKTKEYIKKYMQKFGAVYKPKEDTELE

Target: Halo-FLAG-SETD2CΔSRI (human) (UniProt Q9BYW2)
Assay: co-IP; Halo affinity purification of a Halo-tagged bait expressed in 293T (Magne HaloTag beads, AcTEV elution); endogenous partner detected by western blot; lysate with or without RNase where stated

B1: hnRNP L (endogenous) (protein, UniProt P14866 1-589)
chain: MSRRLLPRAEKRRRRLEQRQQPDEQRRRSGAMVKMAAAGGGGGGGRYYGGGSEGGRAPKRLKTDNAGDQHGGGGGGGGGAGAAGGGGGGENYDDPHKTPASPVVHIRGLIDGVVEADLVEALQEFGPISYVVVMPKKRQALVEFEDVLGACNAVNYAADNQIYIAGHPAFVNYSTSQKISRPGDSDDSRSVNSVLLFTILNPIYSITTDVLYTICNPCGPVQRIVIFRKNGVQAMVEFDSVQSAQRAKASLNGADIYSGCCTLKIEYAKPTRLNVFKNDQDTWDYTNPNLSGQGDPGSNPNKRQRQPPLLGDHPAEYGGPHGGYHSHYHDEGYGPPPPHYEGRRMGPPVGGHRRGPSRYGPQYGHPPPPPPPPEYGPHADSPVLMVYGLDQSKMNCDRVFNVFCLYGNVEKVKFMKSKPGAAMVEMADGYAVDRAITHLNNNFMFGQKLNVCVSKQPAIMPGQSYGLEDGSCSYKDFSESRNNRFSTPEQAAKNRIQHPSNVLHFFNAPLEVTEENFFEICDELGVKRPSSVKVFSGKSERSSSGLLEWESKSDALETLGFLNHYQMKNPNGPYPYTLKLCFSTAQHAS
Q: How did the binding turn out when B1 was run?
A: binds
